# No constants are given. Whether binding was seen depends on the method and setting. In cells and extracts the contact can be indirect. A result given as binding can be weak or reduced; the word gives no strength.
# Target: GFP-myosin VI short full-length
# Experiment: proximity ligation
binder,measurement,value
"oral-facial-digital syndrome 1 (OFD1) protein (endogenous) (protein, UniProt O75665 1-1012) MMAQSNMFTVADVLSQDELRKKLYQTFKDRGILDTLKTQLRNQLIHELMHPVLSGELQPRSISVEGSSLLIGASNSLVADHLQRCGYEYSLSVFFPESGLAKEKVFTMQDLLQLIKINPTSSLYKSLVSGSDKENQKGFLMHFLKELAEYHQAKESCNMETQTSSTFNRDSLAEKLQLIDDQFADAYPQRIKFESLEIKLNEYKREIEEQLRAEMCQKLKFFKDTEIAKIKMEAKKKYEKELTMFQNDFEKACQAKSEALVLREKSTLERIHKHQEIETKEIYAQRQLLLKDMDLLRGREAELKQRVEAFELNQKLQEEKHKSITEALRRQEQNIKSFEETYDRKLKNELLKYQLELKDDYIIRTNRLIEDERKNKEKAVHLQEELIAINSKKEELNQSVNRVKELELELESVKAQSLAITKQNHMLNEKVKEMSDYSLLKEEKLELLAQNKLLKQQLEESRNENLRLLNRLAQPAPELAVFQKELRKAEKAIVVEHEEFESCRQALHKQLQDEIEHSAQLKAQILGYKASVKSLTTQVADLKLQLKQTQTALENEVYCNPKQSVIDRSVNGLINGNVVPCNGEISGDFLNNPFKQENVLARMVASRITNYPTAWVEGSSPDSDLEFVANTKARVKELQQEAERLEKAFRSYHRRVIKNSAKSPLAAKSPPSLHLLEAFKNITSSSPERHIFGEDRVVSEQPQVGTLEERNDVVEALTGSAASRLRGGTSSRRLSSTPLPKAKRSLESEMYLEGLGRSHIASPSPCPDRMPLPSPTESRHSLSIPPVSSPPEQKVGLYRRQTELQDKSEFSDVDKLAFKDNEEFESSFESAGNMPRQLEMGGLSPAGDMSHVDAAAAAVPLSYQHPSVDQKQIEEQKEEEKIREQQVKERRQREERRQSNLQEVLERERRELEKLYQERKMIEESLKIKIKKELEMENELEMSNQEIKDKSAHSENPLEKYMKIIQQEQDQESADKSSKKMVQEGSLVDTLQSSDKVESLTGFSHEELDDSW",binding,binds

# Source: article doi:10.1101/2021.06.18.448975
